From article PMC11845477, “Exploring the principles behind antibiotics with limited resistance” (Nature Communications, 2025)

Test system: E. coli K12 BW25113 bearing the ASKA plasmid pool
Experiment: Genome-wide overexpression (ASKA) library screening on antibiotic gradient plates
Assay type: cell-based, Escherichia coli
Conditions: genes with over 1% read coverage relative to total coverage per antibiotic

Substance | Overexpressed gene (reduces antibiotic susceptibility upon overexpression)
POL7306 | not found
Tridecaptin M152-P3 | not found
